The target of assay [1] is T1, S protein-Flag-streptavidin-binding protein-tagged ZBTB11 (UniProt O95625).
T1 sequence: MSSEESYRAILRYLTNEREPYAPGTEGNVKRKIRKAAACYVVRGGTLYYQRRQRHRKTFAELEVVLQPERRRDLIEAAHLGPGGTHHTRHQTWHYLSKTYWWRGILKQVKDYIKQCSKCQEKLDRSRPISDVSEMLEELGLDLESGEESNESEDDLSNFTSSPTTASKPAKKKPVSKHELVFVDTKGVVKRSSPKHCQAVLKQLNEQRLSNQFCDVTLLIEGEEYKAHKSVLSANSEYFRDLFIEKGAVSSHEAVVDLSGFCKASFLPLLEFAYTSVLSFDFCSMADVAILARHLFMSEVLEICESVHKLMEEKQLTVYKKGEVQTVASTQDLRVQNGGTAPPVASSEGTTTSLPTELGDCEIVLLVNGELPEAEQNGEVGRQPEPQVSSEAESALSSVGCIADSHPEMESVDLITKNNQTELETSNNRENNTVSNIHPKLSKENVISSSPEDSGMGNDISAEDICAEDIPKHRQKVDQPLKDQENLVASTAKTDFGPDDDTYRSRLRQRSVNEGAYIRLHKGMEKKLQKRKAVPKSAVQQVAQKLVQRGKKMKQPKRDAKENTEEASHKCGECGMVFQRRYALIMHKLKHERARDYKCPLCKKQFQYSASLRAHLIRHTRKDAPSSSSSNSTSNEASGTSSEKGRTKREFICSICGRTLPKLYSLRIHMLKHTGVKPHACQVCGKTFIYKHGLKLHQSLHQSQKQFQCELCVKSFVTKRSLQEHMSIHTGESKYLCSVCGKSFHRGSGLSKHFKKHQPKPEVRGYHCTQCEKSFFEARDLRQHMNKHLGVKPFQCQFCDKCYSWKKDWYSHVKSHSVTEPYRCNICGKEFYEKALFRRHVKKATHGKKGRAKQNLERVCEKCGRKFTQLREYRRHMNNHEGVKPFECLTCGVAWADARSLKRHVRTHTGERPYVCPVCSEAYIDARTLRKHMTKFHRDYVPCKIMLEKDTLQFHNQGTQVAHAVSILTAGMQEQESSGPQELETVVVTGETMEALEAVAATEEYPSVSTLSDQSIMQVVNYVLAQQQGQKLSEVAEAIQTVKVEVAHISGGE
Briefly: co-IP; HEK293T cells transiently transfected with Myc-SET with or without SFB-ZBTB11; NP40 lysis buffer, washes with BC100 buffer.

Amino acid sequences for entries named in this document (tags omitted).
UniProt Q01105: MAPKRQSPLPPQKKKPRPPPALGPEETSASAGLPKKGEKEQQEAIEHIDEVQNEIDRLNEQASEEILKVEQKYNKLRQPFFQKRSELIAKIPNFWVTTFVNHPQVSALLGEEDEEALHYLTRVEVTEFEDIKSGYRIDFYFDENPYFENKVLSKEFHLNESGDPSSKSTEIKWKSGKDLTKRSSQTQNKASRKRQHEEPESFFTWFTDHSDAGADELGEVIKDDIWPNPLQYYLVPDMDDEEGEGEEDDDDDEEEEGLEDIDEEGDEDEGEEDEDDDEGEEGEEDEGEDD

Assay [2] concerns the target T2, zinc finger and BTB domain-containing protein 11 (ZBTB11), endogenous (human (endogenous in H1299)) (UniProt O95625).
T2 sequence: T1 sequence
Description: re-ChIP-qPCR; formaldehyde-fixed H1299 chromatin; primary ChIP with anti-ZBTB11 antibody, then ChIP of SET; qPCR at MMP9 loci. In general terms: In qPCR the cycle at which signal appears reflects the starting amount.

For assay [3], the target named is T2, zinc finger and BTB domain-containing protein 11 (ZBTB11), endogenous (human (endogenous in H1299)). Briefly: co-IP; endogenous proteins in H1299 cells, precipitated with anti-SET or anti-ZBTB11 antibody and Protein A/G beads; NP40 buffer, 4 °C, washes with BC100 buffer.
The target of assay [4] is T3, ZBTB11 linker region (amino acids 313-568) (UniProt O95625).
T3 sequence: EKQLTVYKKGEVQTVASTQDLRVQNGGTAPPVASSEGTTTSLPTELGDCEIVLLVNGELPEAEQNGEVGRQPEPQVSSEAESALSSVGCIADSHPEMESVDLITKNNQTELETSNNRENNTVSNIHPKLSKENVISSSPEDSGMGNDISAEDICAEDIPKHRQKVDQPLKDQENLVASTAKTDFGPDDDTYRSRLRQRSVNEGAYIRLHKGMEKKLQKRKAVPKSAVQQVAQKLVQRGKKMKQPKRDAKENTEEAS
Description: pull-down; GST or GST-fusion proteins from E. coli immobilised on GST-Bind resin, incubated with purified SET or ZBTB11 for 1 h at 4 °C, washed three times with BC100 buffer (100 mM NaCl), eluted with Laemmli buffer; both purified.

Assay [5] addresses T4, purified full-length ZBTB11 (UniProt O95625).
T4 sequence: T1 sequence
The assay is described as above.

For assay [6], the target named is T5, ZBTB11 fragment 522-568 aa (UniProt O95625).
T5 sequence: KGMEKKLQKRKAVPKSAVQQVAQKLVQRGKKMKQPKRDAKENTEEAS
The description is as above.

The target in assay [7] is SET (SE translocation), endogenous (human (endogenous in H1299)) (UniProt Q01105). Briefly: co-IP; endogenous proteins in H1299 cells, precipitated with anti-SET or anti-ZBTB11 antibody and Protein A/G beads; NP40 buffer, 4 °C, washes with BC100 buffer.
A further assay concerns the target Flag-HA-tagged SET (UniProt Q01105). Description: co-IP; H1299-EV or H1299-FH-SET stable cells, complex purified by anti-Flag agarose, Western blot with a ZBTB11-specific antibody. Background: A western blot detects proteins with antibodies after separation by electrophoresis.
Assay [8] addresses SET (SE translocation), endogenous (human (endogenous in H1299)) (UniProt Q01105). Briefly: co-IP; endogenous proteins in H1299 cells, lysate in modified NP40 buffer with 1 mM MgCl2 and 250 U/ml benzonase to degrade DNA.

These are yes or no findings as the source states them, for the method shown. For part of these data: Binding seen in cells or lysates may run through a third protein. Some binding calls cover weakened binding; strength is not graded here. For part of these data: Where a sequence is shown, tags or fusion partners need not be part of it.

Turning to “Myc-tagged SET (from UniProt Q01105 1-290)”, the binding entry in assay [1] is given as “binds”.
As for “SET (SE translocation), endogenous (from UniProt Q01105 1-290)”, the binding entry in [2] and in assay [3] was “binds” throughout.
As for “purified full-length SET (from UniProt Q01105 1-290)”, the binding result in assay [4], in [5] and in assay [6] was “binds” in each case.

B1: zinc finger and BTB domain-containing protein 11 (ZBTB11), endogenous (protein, UniProt O95625 1-1053)
chain: T1 sequence
In the case of B1, the binding entry (in assay [7]; with Flag-HA-tagged SET; in assay [8]) was “binds” in each case.

Source of the values: paper PMC10867109.
